Data as given in PubChem BioAssay AID1259314 (Drosophila RNAi Screening Center, 2017).

Assay: 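Modifiers of manganese chloride toxicity in fly cells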 (primary screen)
Cells: Drosophila S2R+ cells
Reagent: long dsRNA against Drosophila genes
Time to read-out: 5 days (4 days knock-down, then 1 day metal exposure)
Conditions: manganese chloride added to 15 mM for 24 hours
Measured: 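Cellular ATP measured by luciferase light, scaled to the plate mean, averaged across replicates and z-scored over plates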
Scale: mean ATP z-score: higher = more ATP than the plate average, more viable cells under manganese
Call rule: 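Called active when the mean ATP z-score is above 1.5 or below -1.5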
Calls: active = strong ATP change, up or down; inactive = no strong ATP change
The whole screen tested about 3,100 reagents; this is a random part of them. Of all reagents, 289 (9.3%) were called active. 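Active includes both higher and lower ATP than plate average; check the z-score sign for direction.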 The numbers tell different reagents against one gene apart. A plus sign joins genes that one reagent is predicted to hit. Reagent sequences are not shown. Not stated in the record: the amount of reagent.

gene	reagent no.	mean ATP z-score	Outcome
nemy	1	0.132	inactive
nemy	2	-0.685	inactive
Tsp33B	1	-0.102	inactive
Tsp33B	2	-0.515	inactive
Catsup	1	-0.329	inactive
Catsup	2	0.632	inactive
CrzR	1	-1.01	inactive
CrzR	2	-0.304	inactive
Trc8	1	0.222	inactive
Trc8	2	0.644	inactive
msk	1	-0.657	inactive
msk	2	7.78	active
SPoCk	1	-0.727	inactive
SPoCk	2	-0.8	inactive
CG12746	1	0.501	inactive
CG12746	2	0.173	inactive
CG32246	1	-0.453	inactive
CG32246	2	0.175	inactive
CG11437	1	-0.174	inactive
Or56a	1	-0.0282	inactive
Or56a	2	0.429	inactive
CG4462	1	-0.777	inactive
CG4462	2	1.54	active
Alg9	1	-0.549	inactive
Alg9	2	-0.312	inactive
Gr36c	1	0.733	inactive
Gr36c	2	0.741	inactive
dmGlut	1	-0.222	inactive
dmGlut	2	1.07	inactive
AdoR	1	0.503	inactive
AdoR	2	0.461	inactive
Shal	1	-0.128	inactive
Shal	2	-0.582	inactive
CG15096	1	1.23	inactive
CG15096	2	0.463	inactive
Lkr	1	-1.25	inactive
Lkr	2	-0.697	inactive
E23	1	-0.392	inactive
E23	2	-0.452	inactive
CG10486	1	-0.989	inactive
CG10486	2	1.91	active
st	1	0.744	inactive
st	2	-0.281	inactive
Tsp42Ea	1	2.94	active
Tsp42Ea	2	2.9	active
CG33012	1	-1.21	inactive
CG33012	2	-0.0381	inactive
NPFR	1	-0.603	inactive
CR32011 + CR32009 + PlexB + 1 more	1	-0.384	inactive
CR32011 + CR32009 + PlexB + 1 more	2	0.991	inactive
CG31717	1	0.0952	inactive
Oatp30B	1	0.534	inactive
Oatp30B	2	-1.28	inactive
CG5850	1	-1.34	inactive
CG5850	2	0.214	inactive
moody	1	0.238	inactive
Osi16	1	-0.66	inactive
Or85f	1	0.298	inactive
Or85f	2	1.08	inactive
mthl3	1	0.836	inactive
mthl3	2	2.53	active
Stim	1	1.91	active
Stim	2	0.592	inactive
ppk17	1	0.698	inactive
ppk17	2	-0.32	inactive
Scgbeta	1	-0.171	inactive
PXo	1	-1.39	inactive
fusl	1	0.409	inactive
fusl	2	-0.997	inactive
CG42685	1	-0.321	inactive
CG42685	2	-0.789	inactive
MME1	1	0.37	inactive
MME1	2	-0.288	inactive
mth	1	-0.31	inactive
mth	2	-0.0679	inactive
DAT	1	-0.0271	inactive
CG10702	1	0.142	inactive
CG10702	2	-0.0967	inactive
CG10702	3	-0.624	inactive
CG3078	1	0.552	inactive
CG3078	2	-0.925	inactive
Ostgamma	1		inactive
Ostgamma	2	-1.02	inactive
CG15553	1	-0.0149	inactive
CG15553	2	-0.185	inactive
pcx	1	0.214	inactive
pcx	2	0.622	inactive
Tsp3A	1	-0.366	inactive
Tsp3A	2	1.68	active
Cirl	1	0.0155	inactive
Cirl	2	0.363	inactive
CG11426	1	-0.457	inactive
CG11426	2	-0.843	inactive
CG11426	3	0.153	inactive
CapaR	1	0.0493	inactive
CapaR	2	-0.0719	inactive
Inx3	1	0.362	inactive
Inx3	2	-0.941	inactive
CG34450	1	-0.767	inactive
CG34450	2	-0.772	inactive
CG3829	1	3.02	active
Irk2	1	-0.409	inactive
Irk2	2	-0.0259	inactive
CG9825	1	-0.277	inactive
CG9825	2	0.0527	inactive
Nha1	1	-0.135	inactive
Nha1	2	0.158	inactive
CG6845	1	-0.961	inactive
CG6845	2	1.36	inactive
CG14731	1	-0.128	inactive
CG14731	2	1.45	inactive
